Experimental data: PubChem BioAssay AID1259254 (NCATS, 2017)
Assay: 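Genome-wide screen for genes that prevent DNA re-replication in cancer cells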 (primary screen). Cells: human HCT116 colorectal cancer cells. Knock-down reagent: single siRNA against human genes. Time to read-out: 3 days. Measured: 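Nuclei stained with Hoechst and imaged; cell-cycle phase assigned by DNA content; G2 share scaled per plate, non-targeting siRNA 0%, GMNN siRNA 100%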. Reading the numbers: G2 robust z-score and G2 cells, % of GMNN control: higher = more G2 cells, more excess DNA replication; raw share of cells in G2: higher = larger share of cells with G2 DNA content. Rule for the call: 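Active siRNAs have a G2 robust z of 5 or more median absolute deviations over the median, which in these data means about 38% or higher of GMNN control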.
The whole screen tested about 59,000 reagents; this is an unselected part. About 1,550 of all reagents (2.6%) count as active. 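G2 share is only a proxy for re-replication; each gene was hit by three separate siRNAs, and active genes were retested.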 The raw values are shown without normalisation. A number with no mark means an inactive call. Reagents against one gene are numbered here. Not stated in the record: the amount of reagent.

target	siRNA no.	G2 robust z-score	G2 cells, % of GMNN control	raw share of cells in G2 (%)
SLC12A5	1	-1.45	-7.21	1.8
SLC12A5	2	-0.764	-2.41	3.35
SLC12A5	3	-0.987	-3.98	4
MICALL1	1	0.478	6.33	6.77
MICALL1	2	0.788	8.51	5.67
MICALL1	3	-0.298	0.87	3.2
SDR42E1	1	-0.722	-2.11	4.69
SDR42E1	2	0.271	4.88	6.32
SDR42E1	3	-0.158	1.86	5.76
SPN	1	0.886	9.2	9.21
SPN	2	2.76	22.4	12.8
SPN	3	4.48	34.5	15.6
STATH	1	1.32	12.2	10.6
STATH	2	-0.702	-1.97	3.11
STATH	3	-0.278	1.01	3.7
CACNG4	1	-0.415	0.0473	5.31
CACNG4	2	4.56	35	16.6
CACNG4	3	2.22	18.6	11.6

3 successive entries from above, quoted:
target	siRNA no.	G2 robust z-score	G2 cells, % of GMNN control	raw share of cells in G2 (%)
SLC12A5	2	-0.764	-2.41	3.35
SLC12A5	3	-0.987	-3.98	4
MICALL1	1	0.478	6.33	6.77

The results go on.
target	siRNA no.	G2 robust z-score	G2 cells, % of GMNN control	raw share of cells in G2 (%)
MT1H	1	2.87	23.2	11.7
MT1H	2	2.59	21.2	14
MT1H	3	0.83	8.81	7.7
PYCARD	1	0.441	6.07	5.98
PYCARD	2	-1.57	-8.05	1.52
PYCARD	3	-1.15	-5.11	3.85
ELOB	1	-0.706	-2	2.4
ELOB	2	-0.578	-1.1	2.79
ELOB	3	0.162	4.11	4.97
CCT5	1	-0.0942	2.3	4.29
CCT5	2	0.969	9.78	10.3
CCT5	3	2.23	18.7	11.2
